Primary screen of a compound library

Mtb growth Cornell: 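Whole-cell assay for inhibitors of Mycobacterium tuberculosis growth, labelled Cornell in the record; the read-out is not stated. The concentration is filed as 10 mM, unlikely as a test dose, so the dose is not known. The record gives no direction; compounds strong in two other growth screens of this library score well above the rest, so higher reads as stronger inhibition. Size under these conditions: about 53,000 compounds, about 900 of them at 50% or above in at least one test.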
Mtb heat-shock: 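Assay on Mycobacterium tuberculosis, filed only as a heat shock assay from Cornell; the read-out is not stated. The concentration is filed as 10 mM, unlikely as a test dose, so the dose is not known. Higher reads as stronger inhibition (inferred: compounds with an IC50 in retests scored well above the rest). Size under these conditions: about 69,000 compounds, about 930 of them at 50% or above in at least one test.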

Each number is a percent effect as filed.
The record does not define 0% and 100%; most values in the screen are far below 50% and negative numbers occur (in some assays of this library far below -100).
Compounds were drawn at random from those tested, without regard to their results.

structure: c1ccc(C2CN(c3ncnc4[nH]cnc34)CCO2)cc1 (centres undefined)
Mtb growth Cornell: 13.06
Mtb heat-shock: 6.098

structure: COCC(=O)N[C@H](C)c1c(-c2ccc(Cl)cc2)noc1C(=O)O
Mtb heat-shock: -23.73

structure: O=C(CCCn1nnc(-c2ccc(F)cc2)n1)N1CCOCC(CO)C1 (centres undefined)
Mtb growth Cornell: -18.33
Mtb heat-shock: 1.529

structure: CCC(C)N(C)C(=O)Nc1ccc(N2CCSCC2)cc1C (centres undefined)
Mtb growth Cornell: 109
Mtb heat-shock: -0.3879

structure: CS(=O)(=O)NC1CCN(Cc2ccc(OCc3ccccn3)cc2)CC1
Mtb growth Cornell: -8.286
Mtb heat-shock: 0.5191

structure: CN(CC(=O)N1CC(C)(C)[C@](O)(C2CC2)C1)Cc1cccnc1
Mtb growth Cornell: -15.82
Mtb heat-shock: 6.899

structure: CSCC(=O)Nc1ncn(Cc2cccc(Br)c2)n1
Mtb growth Cornell: 20.07
Mtb heat-shock: -31.04

structure: CC(=O)c1cc(CN2C[C@@H](C(=O)O)[C@H](c3cccnc3)C2)cs1
Mtb growth Cornell: 35.02
Mtb heat-shock: -27.37

structure: CNS(=O)(=O)c1cccc(C(C)NCc2ccc(C)c(C)c2)c1 (centres undefined)
Mtb growth Cornell: -44.83
Mtb heat-shock: -16.67

structure: CCN(Cc1cc(Cl)ccc1OC)Cc1cc(C)nn1C
Mtb growth Cornell: 15.84
Mtb heat-shock: -9.665

structure: O=C(c1cnc(-c2cccs2)s1)N1CCCN2CCCC2C1 (centres undefined)
Mtb growth Cornell: -3.951
Mtb heat-shock: 1.648

structure: Cc1cnn(C2CCCN(C(=O)c3cc(Cl)c4c(c3)OCO4)C2)c1 (centres undefined)
Mtb growth Cornell: 8.972
Mtb heat-shock: -16.83

structure: COc1ccc(OCc2nc(C(=O)N3CCCNC(=O)C3)co2)cc1
Mtb growth Cornell: -14.12
Mtb heat-shock: 0.8725

structure: O=C(C1CC1)N1CCC(O)(CN2CCN(c3ccccc3)CC2)C1 (centres undefined)
Mtb growth Cornell: -3.688
Mtb heat-shock: 5.027

structure: [H][C@@]12COC[C@]1(COc1nccc(C)n1)CN(C(=O)Cc1ccsc1)C2
Mtb heat-shock: -3.06

structure: Cn1ncc2c1CCCC2NCc1ccc(Cl)s1 (centres undefined)
Mtb heat-shock: -7.984

structure: O=C(O)C(F)(F)F.[H][C@@]12CCN(CC3CCOCC3)[C@@]1([H])CCN2C(=O)c1cccc(F)c1
Mtb growth Cornell: 6.452
Mtb heat-shock: -1.581

structure: [H][C@@]12CCN(S(=O)(=O)c3ccccc3C)C[C@]1(C(=O)NC)CCO2
Mtb growth Cornell: 15.39
Mtb heat-shock: 2.073

structure: CCOc1ccc(S(=O)(=O)Nc2cnc(OC)nc2OC)cc1
Mtb growth Cornell: 1.716
Mtb heat-shock: -10.21

structure: COCCOc1cccc(C(=O)N2CCCC(n3cccn3)C2)c1 (centres undefined)
Mtb growth Cornell: 10.32
Mtb heat-shock: 20

structure: CS(=O)(=O)N1CCC(CNC(=O)c2cnccn2)CC1
Mtb growth Cornell: -29.61
Mtb heat-shock: -17.36

structure: CCNC(=O)c1ccc(NC(=O)N(C)Cc2cc(C)on2)cc1
Mtb growth Cornell: -5.738
Mtb heat-shock: -3.533

structure: CCN(CC)CCn1c(NC(=O)c2scnc2C)nc2ccccc21
Mtb heat-shock: 46.93

structure: O=C(O)C(F)(F)F.[H][C@@]12CCCO[C@]1([H])[C@H](N(C)Cc1ccco1)CN2C(=O)c1ccnnc1
Mtb growth Cornell: 8.384
Mtb heat-shock: -17.91

structure: CCc1nc(N2CCN(c3ncccn3)CC2)c2cnn(C)c2n1
Mtb growth Cornell: -86.14
Mtb heat-shock: 8.464

structure: CC1CCN(C(=O)c2cccc(CN3CCOCC3)c2)CC1
Mtb growth Cornell: 6.295
Mtb heat-shock: 31.78

structure: CC(C)=CCN1CCOC(Cn2cccn2)C1 (centres undefined)
Mtb heat-shock: 0.9825

structure: CCS(=O)(=O)NCC1Cn2nnc(-c3cccc(C)c3)c2CO1 (centres undefined)
Mtb growth Cornell: -5.726
Mtb heat-shock: 7.747

structure: OC1CCN(CCCn2ccnc2-c2c[nH]cn2)CC1
Mtb growth Cornell: -36.63
Mtb heat-shock: 16.94

structure: CC(c1cccs1)N(C)C(=O)c1cc(CN(C)Cc2ccccc2)on1 (centres undefined)
Mtb heat-shock: -27.99

structure: CC(C)C1CN(C(=O)c2nccnc2N)CCS1 (centres undefined)
Mtb growth Cornell: -39.83
Mtb heat-shock: -15.31

structure: O=C(c1cccnc1)N1CCCC1c1cc[nH]n1 (centres undefined)
Mtb growth Cornell: -0.908
Mtb heat-shock: 6.178

structure: Cc1noc(C2CN(S(C)(=O)=O)Cc3ccnn3C2)n1 (centres undefined)
Mtb growth Cornell: -26.48
Mtb heat-shock: -10.43

structure: COCCC(C)NS(=O)(=O)c1ccc(C)c(N(C)C)c1 (centres undefined)
Mtb growth Cornell: -0.04699
Mtb heat-shock: 1.91

structure: CCN1C(=O)C(c2ccccc2)CC12CCN(c1ncccn1)CC2 (centres undefined)
Mtb heat-shock: -4.565

structure: Cc1cc(CN2CCCC2)cc(Oc2ccc(C(F)(F)F)cn2)c1
Mtb growth Cornell: 30.37
Mtb heat-shock: -0.01915

structure: Cc1cccc(CNC(=O)N(CCCO)C2CCc3ccccc32)n1 (centres undefined)
Mtb heat-shock: -10.7

structure: Fc1cc(CN2CCCC2Cn2cncn2)c2ncccc2c1 (centres undefined)
Mtb heat-shock: 22.71

structure: COCC1CN(Cc2ccc(C)o2)Cc2ncn(CC3CC3)c21 (centres undefined)
Mtb growth Cornell: 17.95
Mtb heat-shock: -19.32

structure: COC(=O)c1ccc(N(C(=O)c2cccnc2C)C(C)C)c(C)c1
Mtb growth Cornell: -2.639
Mtb heat-shock: -11.96

structure: O=C(Nc1cccnc1)Nc1ccn(CC(F)F)n1
Mtb growth Cornell: 29.65
Mtb heat-shock: -18.98

structure: CC(C)CNC(=O)c1ccc(NC(=O)NCC2CC2)cc1Cl
Mtb growth Cornell: -24.74
Mtb heat-shock: 6.543

structure: COc1ccc(C)c(NC(=O)NCc2ncnn2C)c1
Mtb growth Cornell: -18.47
Mtb heat-shock: -9.57

structure: Cc1noc(CNc2ccc(CC(=O)N3CCSCC3)cc2)n1
Mtb growth Cornell: -35.9
Mtb heat-shock: 11.24

structure: C/C=C(\C)CN1C[C@@H](NC(=O)c2ccc(F)c(F)c2)C[C@H]1C(=O)NCC
Mtb growth Cornell: 19.94
Mtb heat-shock: 23.38

structure: Cc1nccn1C1CCCN(C(=O)c2ccc3c(c2)nnn3C)C1 (centres undefined)
Mtb growth Cornell: 13.58
Mtb heat-shock: -13.49

structure: CSc1ccc(OC(C)C(=O)Nc2c(C)n[nH]c2C)cc1 (centres undefined)
Mtb heat-shock: -18.99

structure: CC(C)(C)c1noc(CN2CCN(C(=O)c3ccco3)CC2)n1
Mtb growth Cornell: 3.304
Mtb heat-shock: -1.473

The values are deposited in ChEMBL (CHEMBL3988442, “University of Dundee, Small-Polar-MMV Screening Library” (2021)).